# Test results: PubChem BioAssay AID504444 (National Center for Advancing Translational Sciences (NCATS), 2011)
# In all, about 360,000 compounds went through this assay and about 7,500 (2.1%) were called active. The shares of active, inactive and inconclusive entries below differ from those in the screen. The call rests on the fitted dose curve; in most records, active means well fitted inhibition curve with a large enough effect; inconclusive means small, poorly fitted or top-dose-only effect, or effect the other way; inactive means flat fitted curve, though single readings scatter. A potency beside an inconclusive call is a rough fit, not a confirmed value.
# Test: Nrf2 qHTS screen for inhibitors; further: nearly all actives have a fitted effect of over 60% in size
# Conditions: A549 ARE-Fluc reporter, luciferase luminescence, 18-24 h; series mostly up to 46 µM
# Method in brief: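 Reporter: ARE-Fluc in A549. Exposure: 18-24 h, 37 °C, 5% CO2, 5% FBS OPTI-MEM. Readouts: fluorescent cytotoxicity (CellTiter-Fluor), then luminescent Nrf2 signal after BugLite.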
# Potency means the concentration at half of the fitted maximal effect.
row,Structure (SMILES),Potency
1,CN(CC(=O)Nc1cccc(C(F)(F)F)c1)S(=O)(=O)c1ccc2[nH]c3c(c2c1)CCCC3,"inconclusive: 18.4 µM [falling, single point]"
2,Cc1onc(C(=O)Nc2ccc3c(c2)OCO3)c1[N+](=O)[O-],"inconclusive: 4.11 µM [activator, full curve]"
3,C#CCOCCOCCOCCNc1nc(N2CCN(C(=O)CCCCCCCCCCNC(=O)[C@@H](CCSC)n3cc(CCO)nn3)CC2)nc(N2CCN(C(=O)CCCCCCCCCCNC(=O)[C@H]([C@@H](C)CC)n3cc(CCCCCN)nn3)CC2)n1,"inconclusive: 25.9 µM [falling, single point]"
4,O=S(=O)(N1CCOCC1)n1nnc2ccccc21,inactive
5,CC(=O)c1c(C)[nH]c(C(=O)OCC(=O)NCCC(C)C)c1C,active: 11.6 µM
6,Cc1ccccc1NC(=O)c1sc2nc3c(cc2c1N)CCCC3,"inconclusive: 11.6 µM [activator, partial curve, poor fit]"
7,Cc1ccc(C)c(N2CCN(C(=O)c3ccc(CS(=O)(=O)c4ccc(Br)cc4)o3)CC2)c1,"inconclusive: 20.6 µM [falling, single point]"
8,O=C(c1ccc2c(c1)OCO2)N1CCN(S(=O)(=O)c2ccc(Br)cc2Cl)CC1,"inconclusive: 29.1 µM [falling, partial curve, poor fit]"
9,CC(C)Oc1ccc(S(=O)(=O)N2CCCCC2)cc1NC(=O)C1CCC1,"inconclusive: 16.4 µM [falling, partial curve, poor fit]"
10,COc1ccnc(Oc2ccc(Cl)cc2)c1C#N,"inconclusive: 29.1 µM [activator, single point]"
11,CCOC(=O)c1sc(NC(=O)c2sccc2C)cc1C,"inconclusive: 6.51 µM [activator, full curve, poor fit]"
12,CC(Sc1nc(-c2ccc(F)cc2)cs1)C(=O)N1c2ccccc2CC1C (stereo unspecified),"inconclusive: 0.0046 µM [falling, full curve, poor fit]"
13,FC(F)Oc1ccc(NC(=S)NCc2nc3ccccc3[nH]2)cc1,"inconclusive: 16.4 µM [falling, partial curve, poor fit]"
14,CCn1c(=O)n(CC)c2cc(N3CCCC3)c(NC(=O)c3ccc(C)c([N+](=O)[O-])c3)cc21,"inconclusive: 5.8 µM [falling, partial curve, poor fit]"
15,COc1cccc(C(=O)NC2CCN(CC(=O)Nc3ccccc3Cl)CC2)c1,"inconclusive: 29.1 µM [falling, single point]"
16,Cc1ccc(Sc2cnc3ccccc3n2)cc1,"inconclusive: 2.31 µM [activator, full curve, poor fit]"

# Some values from above:
# Under Potency, CCOC(=O)c1sc(NC(=O)c2sccc2C)cc1C shows inconclusive: 6.51 µM [activator, full curve, poor fit]
# Under Potency, O=C(c1ccc2c(c1)OCO2)N1CCN(S(=O)(=O)c2ccc(Br)cc2Cl)CC1 shows inconclusive: 29.1 µM [falling, partial curve, poor fit]
